Results published in doi:10.1101/2023.05.11.540447.
No constants are given. Whether binding was seen depends on the method and setting.

Target: Xenopus laevis HAS isoform 1 (hyaluronan synthase 1) (Xenopus laevis) (UniProt P13563)
Experiment: SEC + cryo-EM structure

B1: Xenopus laevis HAS isoform 1 (hyaluronan synthase 1) (enzyme, UniProt P13563 1-588)
chain: MKEKAAETMEIPEGIPKDLEPKHPTLWRIIYYSFGVVLLATITAAYVAEFQVLKHEAILFSLGLYGLAMLLHLMMQSLFAFLEIRRVNKSELPCSFKKTVALTIAGYQENPEYLIKCLESCKYVKYPKDKLKIILVIDGNTEDDAYMMEMFKDVFHGEDVGTYVWKGNYHTVKKPEETNKGSCPEVSKPLNEDEGINMVEELVRNKRCVCIMQQWGGKREVMYTAFQAIGTSVDYVQVCDSDTKLDELATVEMVKVLESNDMYGAVGGDVRILNPYDSFISFMSSLRYWMAFNVERACQSYFDCVSCISGPLGMYRNNILQVFLEAWYRQKFLGTYCTLGDDRHLTNRVLSMGYRTKYTHKSRAFSETPSLYLRWLNQQTRWTKSYFREWLYNAQWWHKHHIWMTYESVVSFIFPFFITATVIRLIYAGTIWNVVWLLLCIQIMSLFKSIYACWLRGNFIMLLMSLYSMLYMTGLLPSKYFALLTLNKTGWGTSGRKKIVGNYMPILPLSIWAAVLCGGVGYSIYMDCQNDWSTPEKQKEMYHLLYGCVGYVMYWVIMAVMYWVWVKRCCRKRSQTVTLVHDIPDMCV
binding: no binding
